Measurements reported in US20060025429.

System: HIF-1α/ARNT heterodimer
Assay: EMSA
Details: complex formation implied by the heading (disruption of HIF-DNA complex), no numeric result in text; Z-buffer 100 mM KCl, 25 mM Tris pH 7.5, 0.2 mM EDTA, 0 C; protein translated in vitro; protein details: Promega TNT in vitro transcription/translation; label: 5'-32P on HRE-EMSA1 strand

GACTCCACAGTGCATACGTGGGCTCCAACAGGT / ACGTGTTGGAGCCCACGTATGCACTGTGGAGTC [HRE-EMSA probe (VEGF HRE)]
binding result: binds

The exact form of at least one protein or probe is not confirmed.
